Test results taken from patent US20070031849.

The chains behind the UniProt entries cited, without tags or fusion partners. Residues count along the entry.
UniProt P43351, 1-212 H69A: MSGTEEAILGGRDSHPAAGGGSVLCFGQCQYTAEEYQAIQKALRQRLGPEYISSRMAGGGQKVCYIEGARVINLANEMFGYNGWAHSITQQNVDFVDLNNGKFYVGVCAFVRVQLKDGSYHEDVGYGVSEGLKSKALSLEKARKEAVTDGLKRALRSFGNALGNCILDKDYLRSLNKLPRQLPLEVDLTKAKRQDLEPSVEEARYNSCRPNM
UniProt P43351, 1-212 R55A: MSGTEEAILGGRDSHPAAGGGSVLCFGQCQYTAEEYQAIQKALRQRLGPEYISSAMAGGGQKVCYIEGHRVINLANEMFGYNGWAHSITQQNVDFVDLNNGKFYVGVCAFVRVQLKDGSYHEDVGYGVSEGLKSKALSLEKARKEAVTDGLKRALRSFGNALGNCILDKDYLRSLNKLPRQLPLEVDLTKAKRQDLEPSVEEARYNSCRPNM
UniProt P43351, 1-212 R70A: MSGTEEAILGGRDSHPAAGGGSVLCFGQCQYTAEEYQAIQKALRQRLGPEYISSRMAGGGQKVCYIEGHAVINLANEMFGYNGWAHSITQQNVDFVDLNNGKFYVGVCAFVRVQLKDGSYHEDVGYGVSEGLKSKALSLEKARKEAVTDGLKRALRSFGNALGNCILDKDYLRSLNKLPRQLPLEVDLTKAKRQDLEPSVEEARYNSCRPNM
UniProt P43351, 1-212 K169A: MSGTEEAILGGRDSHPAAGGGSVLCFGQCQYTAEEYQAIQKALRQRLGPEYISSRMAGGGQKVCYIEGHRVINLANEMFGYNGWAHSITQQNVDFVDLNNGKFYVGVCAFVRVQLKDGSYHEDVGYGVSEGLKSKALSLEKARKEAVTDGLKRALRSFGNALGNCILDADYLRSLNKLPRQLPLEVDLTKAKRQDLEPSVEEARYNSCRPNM
UniProt P43351, 1-212 R153A: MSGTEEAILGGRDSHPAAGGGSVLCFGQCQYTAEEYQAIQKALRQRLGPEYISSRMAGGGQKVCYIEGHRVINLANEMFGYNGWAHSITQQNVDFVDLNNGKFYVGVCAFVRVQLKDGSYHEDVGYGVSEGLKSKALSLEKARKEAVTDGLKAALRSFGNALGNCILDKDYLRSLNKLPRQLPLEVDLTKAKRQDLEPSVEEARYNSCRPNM
UniProt P43351, 1-212 Y65A: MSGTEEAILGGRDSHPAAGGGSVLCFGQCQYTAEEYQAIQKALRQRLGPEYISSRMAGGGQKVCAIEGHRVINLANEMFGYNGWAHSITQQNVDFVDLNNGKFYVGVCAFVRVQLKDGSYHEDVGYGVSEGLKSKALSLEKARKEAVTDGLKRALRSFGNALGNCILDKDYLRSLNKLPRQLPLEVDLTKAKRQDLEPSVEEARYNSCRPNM

Experiments:
Experiment in all cases: EMSA
[1] = biological target: HsRad52(1-212) H69A (Homo sapiens) (UniProt P43351); settings: lost most of ssDNA binding; 1 mM MgCl2, 37 C; purified recombinant protein; label: 5'-32P; single-stranded DNA
[2] = biological target: HsRad52(1-212) R55A (Homo sapiens) (UniProt P43351); settings: lost most of ssDNA binding; 1 mM MgCl2, 37 C; purified recombinant protein; label: 5'-32P; single-stranded DNA
[3] = biological target: HsRad52(1-212) R70A (Homo sapiens) (UniProt P43351); settings: lost most of ssDNA binding; 1 mM MgCl2, 37 C; purified recombinant protein; label: 5'-32P; single-stranded DNA
[4] = biological target: HsRad52(1-212) K169A (Homo sapiens) (UniProt P43351); settings: lowered versus wild type; 1 mM MgCl2, 37 C; purified recombinant protein; label: 5'-32P; single-stranded DNA
[5] = biological target: HsRad52(1-212) R153A (Homo sapiens) (UniProt P43351); settings: lowered versus wild type; 1 mM MgCl2, 37 C; purified recombinant protein; label: 5'-32P; single-stranded DNA
[6] = biological target: HsRad52(1-212) Y65A (Homo sapiens) (UniProt P43351); settings: lost most of ssDNA binding; 1 mM MgCl2, 37 C; purified recombinant protein; label: 5'-32P; single-stranded DNA

Measured: binding result

ATTTCATGCTAGACAGAAGAATTCTCAGTAACTTCTTTGTGCTGTGTGTA [SAT-1 50-mer]
binds more weakly: all assays above

A weaker result is weaker than the reference pair of the same experiment.
